{
  "source": "the supplement of paper PMC10338343",
  "note": "± gives the standard deviation. The entries are a selection whose mix differs from that of the whole data set. Many entries were measured with a wide error.",
  "data": [
    {"system": "MILI (PIWIL2) piRISC loaded with piRNA #2 (26 nt)", "assay": "pre-steady-state target cleavage rate (min^-1); MIWI and MILI are mouse PIWI proteins and EfPiwi is from a freshwater sponge; tags in brackets are library labels; higher = faster piRNA-guided slicing of the target", "settings": "guide: piRNA #2 5'p-UUAGGUAACCCAGUAGAUCCAGAGGA; auxiliary factor: 500 nM mouse GTSF1", "summary_of_the_method": "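The pre-steady-state cleavage rate came from a burst-and-steady-state fit to pooled data from three Cleave-'n-Seq trials, in which uncleaved targets were sequenced and normalised to depth and to weakly complementary targets. Each reaction held 0.1 nM transcribed, DNA-blocked target RNA library and 1 nM active affinity-purified piRISC carrying one synthetic guide, with or without 500 nM GTSF1 partner protein, in HEPES–potassium acetate buffer at 33 °C for 0–8 or 0–960 min. k3 was capped at 0.0001 min^-1.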", "values": [
      {"sequence": "CUUAACCUCUGGAUCUAGUGGCUUACCUAA", "pre-steady-state target cleavage rate": "0.000208 ± 0.039"},
      {"sequence": "CUUAAGGAGUGGAUCUUCUGGGUUACCUUA", "pre-steady-state target cleavage rate": "0.014 ± 0.007"},
      {"sequence": "CUUAAGGAGACGAUCUACUGGGUGACCUAA", "pre-steady-state target cleavage rate": "0.000127 ± 0.064"},
      {"sequence": "CUUAAGGAGAGGAUCUACCGGGUUACCUAA", "pre-steady-state target cleavage rate": "0.00177 ± 0.0039"},
      {"sequence": "CUUAAGGAGACCAUCAACUGGGUUAGCUAA", "pre-steady-state target cleavage rate": "0.000125 ± 0.077"},
      {"sequence": "CUUAUCCUCUGGUUCUAGUGGGUUACCUAA", "pre-steady-state target cleavage rate": "0.134 ± 0.028"},
      {"sequence": "CUUAAGGAGACGUUCUUCUGGGUUACCUAA", "pre-steady-state target cleavage rate": "0.00138 ± 0.0073"},
      {"sequence": "CUUAAGGAGUGGUUGUACUGGGUUACCUAA", "pre-steady-state target cleavage rate": "0.00375 ± 0.0042"},
      {"sequence": "CUUAAGCUCUGGAUCUACUGUGGUUACCUAA", "pre-steady-state target cleavage rate": "0.000562 ± 0.018"},
      {"sequence": "CUUAAGGAGACCAUCUACUGGGUUACGUAA", "pre-steady-state target cleavage rate": "0.000417 ± 0.011"},
      {"sequence": "CUUAAGGAGACCUAGAUCUGGGUUACGCUAA", "pre-steady-state target cleavage rate": "0.00012 ± 0.093"},
      {"sequence": "CUUAAGCUCUGGAUCUAGUGGGAUACCUAA", "pre-steady-state target cleavage rate": "0.00824 ± 0.0045"},
      {"sequence": "CUUAAGGAGAGGAUCUACUGGGUUACGCUAA", "pre-steady-state target cleavage rate": "0.00227 ± 0.0043"},
      {"sequence": "CUUAAGGAGACCAUCUACUGGGUUACCUGAA", "pre-steady-state target cleavage rate": "0.000499 ± 0.014"},
      {"sequence": "CUUAAGGAGACCUACUACUGGGUUAACCUAA", "pre-steady-state target cleavage rate": "0.000191 ± 0.025"},
      {"sequence": "CUUAAGGAGUGCAUCUAGUGGGUUACCUAA", "pre-steady-state target cleavage rate": "0.00288 ± 0.0051"},
      {"sequence": "CUUAAGGAGACGAUCUACGUGGGUUACCUAA", "pre-steady-state target cleavage rate": "0.000525 ± 0.021"},
      {"sequence": "CUUAAGGUCUGGAUCUACUGGGUACCUAA", "pre-steady-state target cleavage rate": "0.00139 ± 0.0065"},
      {"sequence": "CUUAAGGAGACCUACUACCUGGGUUACCUAA", "pre-steady-state target cleavage rate": "0.000335 ± 0.028"},
      {"sequence": "CUUAUCCUCUGGAUCUACUGGGUUACCUCA", "pre-steady-state target cleavage rate": "0.0902 ± 0.018"},
      {"sequence": "CUUAAGGAGACCAACUACUGGGUAACCUAA", "pre-steady-state target cleavage rate": "0.000317 ± 0.03"},
      {"sequence": "CUUAAGGUCUGGAUCUACUAGGGUUACCUAA", "pre-steady-state target cleavage rate": "0.00365 ± 0.0041"},
      {"sequence": "CUUAUCCUCUGGAUCUACUGGGUUACCUAC [g2:g26:cont:t1C]", "pre-steady-state target cleavage rate": "0.105 ± 0.014"},
      {"sequence": "CUUAAGGAGACCUACUACUGGGUUACCUCAA", "pre-steady-state target cleavage rate": "0.000245 ± 0.027"},
      {"sequence": "CUUAAGGAGACCUACUACUGGGUUACCUGAA", "pre-steady-state target cleavage rate": "0.00026 ± 0.026"},
      {"sequence": "CUUAUCCUCUGGAGUCUACUGGGUUACCUAA", "pre-steady-state target cleavage rate": "0.175 ± 0.039"},
      {"sequence": "CUUAACCUCUGGAACUACUGGGUUUCCUAA", "pre-steady-state target cleavage rate": "0.311 ± 0.14"},
      {"sequence": "CUUAAGGAGACCUACUACUGGAUUACCUAA", "pre-steady-state target cleavage rate": "0.000143 ± 0.04"},
      {"sequence": "CUUAAGGAGUGGAUCUACUGGGUUCCCUAA", "pre-steady-state target cleavage rate": "0.00212 ± 0.0051"},
      {"sequence": "CUUAAGGAGACGAUCGUACUGGGUUACCUAA", "pre-steady-state target cleavage rate": "0.000895 ± 0.012"},
      {"sequence": "CUUAAGGUCUGGAACUUCUGGGUUACCUAA", "pre-steady-state target cleavage rate": "0.0253 ± 0.015"},
      {"sequence": "CUUAAGGAGACCUUCUACUGGCUUACCAAA", "pre-steady-state target cleavage rate": "0.000182 ± 0.021"},
      {"sequence": "CUUAAGGACUGGAUGAACUGGGUUACCUAA", "pre-steady-state target cleavage rate": "0.00178 ± 0.016"},
      {"sequence": "CUUAAGGAGAGGAUCUACAUGGGUUACCUAA", "pre-steady-state target cleavage rate": "0.000107 ± 0.043"},
      {"sequence": "CUUAAGGAGACCAUCACUGGGUUACCUAA", "pre-steady-state target cleavage rate": "0.000467 ± 0.018"},
      {"sequence": "CUUAACCUCUGGAUCUCCUGGGUUACCUAA", "pre-steady-state target cleavage rate": "0.213 ± 0.084"},
      {"sequence": "CUUAAGGAGAGGAUCUAGUGGGUUUCCUAA", "pre-steady-state target cleavage rate": "0.0009 ± 0.011"},
      {"sequence": "CUUAAGGUCUGGAACUACUGGGUUACCAAA", "pre-steady-state target cleavage rate": "0.00238 ± 0.011"},
      {"sequence": "CUUAAGGACUGCAUCUUCUGGGUUACCUAA", "pre-steady-state target cleavage rate": "0.00833 ± 0.0099"},
      {"sequence": "CUUAAGGAGAGGAUCUCACUGGGUUACCUAA", "pre-steady-state target cleavage rate": "0.000923 ± 0.0095"},
      {"sequence": "CUUAACCUCUGGAUGUACUGGCUUACCUAA", "pre-steady-state target cleavage rate": "0.00211 ± 0.0063"},
      {"sequence": "CUUAAGGAGUGGUUCUACUGGGUUACCAAA", "pre-steady-state target cleavage rate": "0.00434 ± 0.0046"},
      {"sequence": "CUUAAGGAGACGAUCUACUGGCGUUACCUAA", "pre-steady-state target cleavage rate": "0.00103 ± 0.011"},
      {"sequence": "CUUAAGGAGACCAUCUACUGGGAUUACCUAA", "pre-steady-state target cleavage rate": "0.00186 ± 0.0054"},
      {"sequence": "CUUAAGGAGACGAUGCUACUGGGUUACCUAA", "pre-steady-state target cleavage rate": "0.000566 ± 0.017"},
      {"sequence": "CUUAAGGAGUGGAUCUACUGGGUUUCCAAA", "pre-steady-state target cleavage rate": "0.000311 ± 0.025"},
      {"sequence": "CUUAAGGACUGGAUCUUCUGGGUAACCUAA", "pre-steady-state target cleavage rate": "0.00258 ± 0.0099"},
      {"sequence": "CUUAAGGACGGGAUCUACUGGGUUACCUAA", "pre-steady-state target cleavage rate": "0.0194 ± 0.025"},
      {"sequence": "CUUAAGGUCUGGAUGUACUGCGUUACCUAA", "pre-steady-state target cleavage rate": "0.00605 ± 0.0087"},
      {"sequence": "CUUAACCUCUGGAUCUACUGCGUUAGCUAA", "pre-steady-state target cleavage rate": "0.00288 ± 0.0056"},
      {"sequence": "CUUAACCUCUGAUCUACUGGGUUACCUAA", "pre-steady-state target cleavage rate": "0.0852 ± 0.019"},
      {"sequence": "CUUAAGGUCUGGAUCAACUGGGUUAGCUAA", "pre-steady-state target cleavage rate": "0.00225 ± 0.0057"},
      {"sequence": "CUUAAGGAGACGACUCUACUGGGUUACCUAA", "pre-steady-state target cleavage rate": "0.000423 ± 0.019"},
      {"sequence": "CUUAAGGACUCGAUCUACUGGGAUACCUAA", "pre-steady-state target cleavage rate": "0.00144 ± 0.015"},
      {"sequence": "CUUAAGGAGACCUACUACUGGGUAACCUAA", "pre-steady-state target cleavage rate": "0.00022 ± 0.026"},
      {"sequence": "CUUAAGGACUGGUUCUACUGGGUUACCAAA", "pre-steady-state target cleavage rate": "0.00118 ± 0.016"},
      {"sequence": "CUUAAGGAGACCUAGUACUGGGUUACAUAA", "pre-steady-state target cleavage rate": "0.000157 ± 0.048"},
      {"sequence": "CUUAACCACUGCAUCUACUGGGUUACCUAA", "pre-steady-state target cleavage rate": "0.0927 ± 0.018"},
      {"sequence": "CUUAAGCUCUGGAUCUACUGGCUUAGCUAA", "pre-steady-state target cleavage rate": "0.000493 ± 0.014"},
      {"sequence": "CUUAAGGAGAGGAUCUACUGCGUUACCUUA", "pre-steady-state target cleavage rate": "0.00139 ± 0.0078"},
      {"sequence": "CUUAAGGAGACCUUCUACUUGGUUACCUAA", "pre-steady-state target cleavage rate": "0.000725 ± 0.0082"},
      {"sequence": "CUUAAGGACUGGAUCUACUGGGUUACCGUAA", "pre-steady-state target cleavage rate": "0.00241 ± 0.0085"},
      {"sequence": "CUUAAGGAGACCUACUACUUGGGUUACCUAA", "pre-steady-state target cleavage rate": "0.000254 ± 0.023"},
      {"sequence": "CUUAAGCUCUGGAUCUCUGGGUUACCUAA", "pre-steady-state target cleavage rate": "0.00275 ± 0.0047"},
      {"sequence": "CUUAAGGAGACCAACUACUGGGUUACCUUA", "pre-steady-state target cleavage rate": "0.000473 ± 0.02"},
      {"sequence": "CUUAUCCUCUGGAUCUACUGGGUUUGCUAA", "pre-steady-state target cleavage rate": "0.216 ± 0.041"},
      {"sequence": "CUUAUCCUGUGGAUCUACUGGGUUACGUAA", "pre-steady-state target cleavage rate": "0.0102 ± 0.0038"},
      {"sequence": "CUUAAGGAGACCAUCUACUGCGUAACCUAA", "pre-steady-state target cleavage rate": "0.000442 ± 0.014"},
      {"sequence": "CUUAAGGAGACCAGUCUACUGGGUUACCUAA", "pre-steady-state target cleavage rate": "0.00105 ± 0.0092"},
      {"sequence": "CUUAAGGAGACCUAGAUGAGGGUUGACCUAA", "pre-steady-state target cleavage rate": "0.000388 ± 0.027"},
      {"sequence": "CUUAAGGAGUGCUUCUACUGGGUUACCUAA", "pre-steady-state target cleavage rate": "0.000779 ± 0.0081"}
    ]}
  ]
}
